{"source": "PubChem BioAssay AID1259308 | NCATS | 2017", "purpose": "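Knock-downs that increase output of a recombinant reporter protein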 (primary screen)", "system": "human HEK293 embryonic kidney cells stably expressing firefly luciferase (HEK-CMV-Luc2-Hygro)", "knock-down reagent": "single siRNA against human genes, 0.8 pmol siRNA per well", "time to read-out": "72 h", "detection": "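Luciferase light (ONE-Glo) measured on one replicate plate set and viability (CellTiter-Glo) on the other, scaled to a negative control siRNA, with robust z-scores and luciferase per cell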", "scale": "total luciferase, z-score: higher = more reporter protein produced", "call rule": "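Active when the median/MAD z-score for overall luciferase is greater than 3; a gene was taken forward for validation with new siRNAs if at least two of its three siRNAs passed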", "meaning of the calls": "active = raised luciferase; inactive = no rise", "note": "The deposit covers about 59,000 reagents; this is an unselected part. In the full data, about 1,510 (2.6%) got an active call. 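Calls use total luciferase alone and ignore viability, so some active siRNAs may act by altering cell number.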 Entries without a mark were called inactive. Further read-outs or replicates are left out here."}
{"Target gene": "PAQR8", "PubChem SID": "SID160753186", "total luciferase, z-score": 0.982}
{"Target gene": "PAQR8", "PubChem SID": "SID160753187", "total luciferase, z-score": 1.11}
{"Target gene": "PAQR8", "PubChem SID": "SID160753188", "total luciferase, z-score": -0.496}
{"Target gene": "ATF3", "PubChem SID": "SID160721069", "total luciferase, z-score": -0.22}
{"Target gene": "ATF3", "PubChem SID": "SID160721090", "total luciferase, z-score": -0.66}
{"Target gene": "ATF3", "PubChem SID": "SID160731267", "total luciferase, z-score": 1.18}
{"Target gene": "DENND10", "PubChem SID": "SID160767543", "total luciferase, z-score": -0.00583}
{"Target gene": "DENND10", "PubChem SID": "SID160767544", "total luciferase, z-score": 1.67}
{"Target gene": "DENND10", "PubChem SID": "SID160767546", "total luciferase, z-score": -2.87}
{"Target gene": "ARHGAP40", "PubChem SID": "SID160764728", "total luciferase, z-score": 1.26}
{"Target gene": "ARHGAP40", "PubChem SID": "SID160764729", "total luciferase, z-score": 1.26}
{"Target gene": "ARHGAP40", "PubChem SID": "SID160764730", "total luciferase, z-score": -0.362}
{"Target gene": "SKA1", "PubChem SID": "SID160732696", "total luciferase, z-score": 1.17}
{"Target gene": "SKA1", "PubChem SID": "SID160761500", "total luciferase, z-score": -1.79}
{"Target gene": "SKA1", "PubChem SID": "SID160761501", "total luciferase, z-score": -0.316}
{"Target gene": "KRT77", "PubChem SID": "SID160765273", "total luciferase, z-score": -1.03}
{"Target gene": "KRT77", "PubChem SID": "SID160765274", "total luciferase, z-score": -0.517}
{"Target gene": "KRT77", "PubChem SID": "SID160765275", "total luciferase, z-score": -0.667}
{"Target gene": "PSMB4", "PubChem SID": "SID160715192", "total luciferase, z-score": -1.5}
{"Target gene": "PSMB4", "PubChem SID": "SID160715193", "total luciferase, z-score": 0.0607}
{"Target gene": "PSMB4", "PubChem SID": "SID160715194", "total luciferase, z-score": 0.0564}

Look-ups from above:
ATF3 [SID160731267], total luciferase, z-score: 1.18
Under “total luciferase, z-score”, ARHGAP40 [SID160764728] reads 1.26
